From PubChem BioAssay AID504467 (National Center for Advancing Translational Sciences (NCATS), 2011)
Hit rate of the full screen: of about 330,000 compounds, about 7,700 (2.3%) were called active. The inconclusive results got no clear call from the source; some entries with a clear call stand among them for comparison. Calls follow the shape of the dose curve; as a rule, active = well fitted inhibition curve with a large enough effect; inconclusive = small, poorly fitted or top-dose-only effect, or effect the other way; inactive = flat fitted curve, though single readings scatter. Potencies beside an inconclusive call are fits to weak or partial responses and may not hold up.

test: qHTS screen for small molecules that inhibit ELG1-dependent DNA repair in human embryonic kidney (HEK293T) cells expressing luciferase-tagged ELG1; details: HEK293T ELG1-luciferase reporter, luminescence, 16 h, DNA damage induced by 5-fluorouridine; activity change, negative = inhibition: at 46.1 µM (top of the series); also: nearly all actives have a fitted effect of over 55% in size
Summary of the method: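 Reporter activity after DNA damage by 5-fluorouridine is monitored. Compound-treated cells incubate 16 hr at 37 °C, then ONE-Glo is added for 30 min before luminescence reading.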
% is scaled to controls: 0 for no effect and ±100 for the full control effect; potency is read from the fitted curve at half-maximal effect.

Question: With `Cc1nc2ccc(NC(=O)c3ccco3)cc2s1` as the molecule, how does the Potency read?
Answer: inconclusive: 20.6 µM [activator, partial curve]

Question: Which Potency does the source give for `N#CC1=C(N)Oc2cc(N)ccc2C1c1ccc(F)cc1F` (stereo unspecified) here?
Answer: inconclusive: 23.1 µM [inhibitor, single point]

Question: For `CCCNC(=O)Cn1c(=O)/c(=C\c2ccc(-c3cccc([N+](=O)[O-])c3)o2)s/c1=C\C(=O)C(C)(C)C`, which Potency is on record?
Answer: inconclusive: 2.31 µM [inhibitor, full curve]

Question: Which Potency does the source give for `N#C/C(C(=O)N1CCCCC1)=C1/N=C(N)c2ccccc21` here?
Answer: inconclusive: 18.4 µM [activator, single point]

Question: For `CCOC(=O)c1ccc(NC(=O)c2n[nH]c(=O)c3ccccc23)cc1`, which Potency is on record?
Answer: inconclusive: 16.4 µM [activator, partial curve]

Question: With `Cc1ccccc1C(=O)Nc1ccccc1` as the molecule, how does the Potency read?
Answer: inconclusive: 18.4 µM [activator, partial curve]

Question: For `O=C1CSC(c2c(F)cccc2Cl)N1c1cccc(F)c1` (stereo unspecified), which “activity change, negative = inhibition” value is on record?
Answer: inactive: -0.742%

Question: With `O=C(Nc1cccc(S(=O)(=O)NC2=NCCC2)c1)c1cc(=O)[nH]c2ccccc12` as the molecule, how does the “activity change, negative = inhibition” value read?
Answer: inactive: -16.2%

Question: Which “activity change, negative = inhibition” value does the source give for `COCCN(CC1CCCN(C2Cc3ccccc3C2)C1)C(=O)CCC(F)(F)F` (stereo unspecified) here?
Answer: inactive: 1.26%

Question: For `CN(Cc1ccccn1)C(=O)C1CCC(=O)N(Cc2cccc(F)c2)C1` (stereo unspecified), which Potency is on record?
Answer: inconclusive: 20.6 µM [activator, partial curve, poor fit]

Question: With `COC(=O)c1[nH]c2ccc(C)cc2c1NC(=O)CN1CCN(c2ccccc2)CC1` as the molecule, how does the Potency read?
Answer: active: 18.4 µM

Question: With `O=S(=O)(c1cc(F)ccc1F)N1CCC2(CC1)OCCO2` as the molecule, how does the Potency read?
Answer: inconclusive: 23.1 µM [activator, partial curve]

Question: For `CCOC(=O)c1c(-c2ccc(C)o2)csc1NC(=S)NC(=O)c1cccs1`, which Potency is on record?
Answer: active: 16.4 µM

Question: For `C[C@@H]1COC(=O)[C@@H](Cc2ccc(F)cc2)C/C=C\C[C@H](CC(=O)N(CCO)Cc2ccccc2)C(=O)N1`, which Potency is on record?
Answer: inconclusive: 18.3 µM [inhibitor, single point]

Question: For `O=C(N/N=C/c1cccs1)c1cc(-c2ccncc2)nc2ccccc12`, which “activity change, negative = inhibition” value is on record?
Answer: inactive: -21.9%

Question: For `Cc1cc(NC(=O)CN2CCN(C/C=C/c3ccccc3)CC2)c([N+](=O)[O-])cc1C`, which Potency is on record?
Answer: inconclusive: 1.84 µM [inhibitor, partial curve, poor fit]

Question: For `COc1ccc(NC(=O)CN(c2ccc(OC)cc2)S(=O)(=O)c2ccc(OC)c(OC)c2)cc1`, which “activity change, negative = inhibition” value is on record?
Answer: inactive: -1.9%

Question: For `O=C(NC(=S)Nc1ccc2c(c1)OCCO2)c1ccccc1F`, which Potency is on record?
Answer: inconclusive: 29.1 µM [activator, single point]

Question: For `O=C(Nc1nnc(-c2ccc(Cl)cc2)o1)Nc1ccccc1Cl`, which “activity change, negative = inhibition” value is on record?
Answer: inactive: 21.8%

Question: With `COc1ccccc1-c1ccc(=O)n(CC(=O)NC2CCc3ccccc32)n1` (stereo unspecified) as the molecule, how does the Potency read?
Answer: inconclusive: 7.3 µM [inhibitor, partial curve]

Question: Which Potency does the source give for `COc1ccc(Nc2ncnc3scc(-c4ccc(OC)cc4)c23)cc1` here?
Answer: active: 11.6 µM

Question: Which “activity change, negative = inhibition” value does the source give for `CCC1=Nc2ccccc2-c2nnc(SC)nc2O1` here?
Answer: inactive: -7.69%

Question: For `COc1cccc(OC)c1NC(=O)c1nc2c(nnn2Cc2ccccc2Cl)c(=O)[nH]1`, which “activity change, negative = inhibition” value is on record?
Answer: inactive: -6.91%

Question: With `COc1cc(S(=O)(=O)Nc2ccc(C)cc2)ccc1N=Cc1c(C)c(C#N)c(=O)n(C)c1O` as the molecule, how does the “activity change, negative = inhibition” value read?
Answer: inactive: 17.4%

Question: For `COc1ccc(C(=O)NC(=O)Nc2ncccc2C)cc1`, which Potency is on record?
Answer: inconclusive: 10.3 µM [activator, partial curve]

Question: With `Cc1nc2cc(Cl)c(Cl)cc2nc1C` as the molecule, how does the Potency read?
Answer: inconclusive: 25.9 µM [activator, single point]

Question: Which Potency does the source give for `CC(C)Cn1c(N)c(C(=O)COC(=O)/C=C/c2cccs2)c(=O)n(C)c1=O` here?
Answer: active: 9.2 µM

Question: With `CN(C)c1ccc(NC(=O)CN2CCC(N3CCCCC3)CC2)cc1` as the molecule, how does the “activity change, negative = inhibition” value read?
Answer: inactive: 2.79%

Question: For `Cc1ccc(NC(=O)CNC(=O)c2ccccc2F)cc1Cl`, which Potency is on record?
Answer: inconclusive: 18.4 µM [activator, single point]

Question: With `c1ccc(-n2nnnc2-c2cnc(-c3cccnc3)nc2-c2cccs2)cc1` as the molecule, how does the Potency read?
Answer: inconclusive: 29.1 µM [inhibitor, single point]

Question: Which “activity change, negative = inhibition” value does the source give for `CNC(=O)Nc1cc(C)nn1C` here?
Answer: inactive: 13%

Question: Which “activity change, negative = inhibition” value does the source give for `COc1ccc(-c2cc(C(=O)NNC3=NCCC3)c3c(C)nn(-c4ccccc4)c3n2)cc1` here?
Answer: inactive: -2.14%

Question: With `CCCOc1ccc(N2C(=O)CC(SC(=NCC)Nc3cccc(F)c3)C2=O)cc1` (stereo unspecified) as the molecule, how does the Potency read?
Answer: inconclusive: 29.1 µM [activator, single point]

Question: For `CS(=O)(=O)c1nc(-c2ccc(F)cc2)cc(C(F)(F)F)n1`, which Potency is on record?
Answer: inconclusive: 29.1 µM [inhibitor, single point]

Question: With `CC(Sc1nc(N2CCOCC2)c2c(c1C#N)CC(C)(C)OC2)C(=O)Nc1ccccc1` (stereo unspecified) as the molecule, how does the Potency read?
Answer: active: 2.91 µM

Question: With `O=C(CC1CCCC1)NNC(=O)c1ccc(Br)cc1` as the molecule, how does the Potency read?
Answer: inconclusive: 14.6 µM [activator, partial curve]

Question: Which Potency does the source give for `CCOc1ccc(N=c2cc(-c3ccc(OC)cc3)oc3ccccc23)cc1` here?
Answer: inconclusive: 29.1 µM [inhibitor, single point]

Question: With `CC(=O)N1CCN(C(=O)CCC(=O)O)CC1` as the molecule, how does the “activity change, negative = inhibition” value read?
Answer: inactive: 21%

Question: With `O=c1c2ccccc2nnn1COc1ccc(Cl)cc1Br` as the molecule, how does the Potency read?
Answer: inconclusive: 18.3 µM [activator, partial curve]

Question: Which Potency does the source give for `CCOC(=O)c1cnc2c(C)c(C)ccc2c1Nc1ccc(S(=O)(=O)Nc2ncccn2)cc1` here?
Answer: inconclusive: 25.9 µM [activator, single point]

Question: Which Potency does the source give for `O=C(Nc1ccc(F)cc1)N1CCC(c2nc3c(nnn3Cc3ccccc3Cl)c(=O)[nH]2)CC1` here?
Answer: inconclusive: 18.3 µM [inhibitor, single point]

Question: With `CC(C)Oc1ccc(C(=O)NCc2ccco2)cc1` as the molecule, how does the Potency read?
Answer: inconclusive: 5.8 µM [activator, single point]

Question: With `O=C(COC(=O)COc1ccccc1[N+](=O)[O-])Nc1ccc(S(=O)(=O)N2CCCCC2)cc1` as the molecule, how does the “activity change, negative = inhibition” value read?
Answer: inactive: -2.83%

Question: For `CC(C)N(C(C)C)S(=O)(=O)c1ccc(NN)nc1`, which Potency is on record?
Answer: inconclusive: 16.4 µM [inhibitor, single point]

Question: For `CCOC(=O)c1c(C)n(-c2ccccc2)c2ccc(O)c(CN(C)C)c12`, which “activity change, negative = inhibition” value is on record?
Answer: inactive: -8.52%

Question: Which “activity change, negative = inhibition” value does the source give for `CCN(CC)S(=O)(=O)c1ccc(NC(=O)COC(=O)c2ccc(Br)o2)cc1` here?
Answer: inactive: -0.761%

Question: Which Potency does the source give for `CCC(C)c1ccc(NC(=O)COC(=O)C2=COCCO2)cc1` (stereo unspecified) here?
Answer: inconclusive: 20.6 µM [activator, single point]

Question: For `CS(=O)(=O)Nc1cccc(C2=NN(C(=O)c3cccc(F)c3)C(c3cccs3)C2)c1` (stereo unspecified), which Potency is on record?
Answer: inconclusive: 23.1 µM [inhibitor, single point]

Question: Which “activity change, negative = inhibition” value does the source give for `Cc1ccc(S(=O)(=O)NNC2=NS(=O)(=O)c3ccccc32)c(C)c1` here?
Answer: inactive: 5.62%

Question: For `O=C(Nc1ccc2c(c1)OCO2)c1cc(-c2ccc(O)cc2)on1`, which Potency is on record?
Answer: inconclusive: 29.1 µM [activator, single point]

Question: With `CN(C)S(=O)(=O)c1ccc(C(=O)Nc2nnc(-c3cccs3)o2)cc1` as the molecule, how does the Potency read?
Answer: inconclusive: 20.6 µM [inhibitor, single point]

Question: With `COc1ccc(C(C)NC(=O)c2cccc([N+](=O)[O-])c2)cc1OC` (stereo unspecified) as the molecule, how does the “activity change, negative = inhibition” value read?
Answer: inactive: 6.92%

Question: For `O=C(COc1ccc2c(-c3ccccc3)cc(=O)oc2c1)Nc1cccnc1`, which Potency is on record?
Answer: inconclusive: 0.92 µM [inhibitor, full curve]

Question: Which Potency does the source give for `O=C(COc1ccccc1Cl)Nc1ccccc1C(=O)N1CCOCC1` here?
Answer: inconclusive: 29.1 µM [activator, single point]

Question: With `COc1ccccc1Oc1nc2ccccn2c(=O)c1/C=C(\C#N)C(=O)Nc1c(C)n(C)n(-c2ccccc2)c1=O` as the molecule, how does the Potency read?
Answer: inconclusive: 7.3 µM [activator, partial curve]

Question: For `Cc1ccc(C)c(N2CCN(C(=O)Cc3c(C(=O)O)[nH]c4ccc(Cl)cc34)CC2)c1`, which “activity change, negative = inhibition” value is on record?
Answer: inactive: 0%

Question: With `CN(C)CCN(C(=O)c1ccc(S(=O)(=O)N(C)c2ccccc2)cc1)c1nc2cc3c(cc2s1)OCCO3` as the molecule, how does the Potency read?
Answer: inconclusive: 32.6 µM [activator, partial curve, poor fit]

Question: For `O=C(O)/C=C/C(=O)Nc1ccc(N2CCOCC2)nc1N1CCOCC1`, which “activity change, negative = inhibition” value is on record?
Answer: inactive: 14.4%

Question: With `CCN(CC)CCn1c(C)nc2ccccc21` as the molecule, how does the “activity change, negative = inhibition” value read?
Answer: inactive: -3.1%

Question: Which Potency does the source give for `CCC(=O)N(CCc1ccccc1)Cc1cc2ccc(OC)cc2[nH]c1=O` here?
Answer: inconclusive: 23.1 µM [inhibitor, partial curve, poor fit]

Question: With `Cc1ccc2oc(C(=O)N(Cc3ccncc3)CC3CCCO3)c(C)c2c1` (stereo unspecified) as the molecule, how does the Potency read?
Answer: inconclusive: 10.3 µM [activator, partial curve]

Question: For `O=C(c1cc(COc2cccc(C(F)(F)F)c2)on1)N1CCC(Oc2cccnc2)CC1`, which Potency is on record?
Answer: inconclusive: 20.6 µM [inhibitor, partial curve]

Question: Which Potency does the source give for `CCn1cc(C(=O)N2CCN(c3ccc([N+](=O)[O-])cc3)CC2)c(=O)c2ccc(C)nc21` here?
Answer: inconclusive: 20.6 µM [inhibitor, single point]

Question: With `O=C1CSC(=S)N1/N=C/c1cccc(C(F)(F)F)c1` as the molecule, how does the “activity change, negative = inhibition” value read?
Answer: inactive: 11.3%

Question: With `Cc1ccccc1NC(=S)NNc1ncc(C(F)(F)F)cc1Cl` as the molecule, how does the Potency read?
Answer: inconclusive: 18.4 µM [inhibitor, single point]

Question: For `CN(C)/C=C(/C(=O)c1ccccc1)n1cncn1`, which “activity change, negative = inhibition” value is on record?
Answer: inactive: 2.46%

Question: With `CN(Cc1cn[nH]c1-c1ccc(-c2ccccc2)cc1)CC1CCOCC1` as the molecule, how does the Potency read?
Answer: inconclusive: 6.51 µM [activator, single point]

Question: For `Cc1noc(C)c1S(=O)(=O)N1CCC(C(=O)N2CCC(C)CC2)CC1`, which “activity change, negative = inhibition” value is on record?
Answer: inactive: -0.859%

Question: Which Potency does the source give for `C=CCN=C1S/C(=C/c2cccc([N+](=O)[O-])c2)C(=O)N1CC=C` here?
Answer: inconclusive: 25.9 µM [inhibitor, partial curve, poor fit]

Question: With `O=C(Nc1cc(S(=O)(=O)Nc2ccccc2Cl)ccc1O)c1ccc(F)cc1F` as the molecule, how does the Potency read?
Answer: inconclusive: 16.4 µM [inhibitor, single point]

Question: For `Cc1nnc(SCC(=O)c2cc(C)n(-c3ccc4c(c3)OCO4)c2C)s1`, which Potency is on record?
Answer: inconclusive: 1.64 µM [activator, full curve, poor fit]
